Experimental data from US20250298041A1.

Columns and labels:
[1] = biological target: recombinant AIM-A1 protein (human VWF residues 1238-1493) (human); assay: biolayer interferometry on AIM-A1 protein, series 4, 8, 16, 32, 63, 125, 250 nM
[2] = biological target: recombinant AIM-A1 protein (human VWF residues 1238-1493) (human); assay: biolayer interferometry (FIG. 3)
[3] = biological target: recombinant AIM-A1 protein (human VWF residues 1238-1493) (human); assay: biolayer interferometry

binding [1] | binding [2] | binding [3] | Binder
binds | binds | binds | R6Nd4 (VHH) VHH: QVQLVESGGGLVQAGGSLRLSCAASGSRFSSRPMAWFRQTPGKEHDFVAYINWSGGSKYYADSVKGRFTISRDNAKNTVYLQMDSLKPEDTSIYYCAAGRAYSAVAVTPRGYDFWGQGTQVTVSS
binds | binds | binds | R6Nd6 (VHH) VHH: QVQLVESGGGLVQAGGSLRLSCATSGIIFSVYHMGWFRQTPGKERELVALISLSGSSTDYADSVKGRFAISRDNAKDTVFLQMNTLKPEDTAVYYCAARLGSSWKYWGQGTQVTVSS

These are yes or no findings as the source states them, for the method shown. Binding calls can cover weak binding; strength is not graded here.
